Test results published in patent US20160347850A1 (AbbVie / Abbott, published 2016).
Results are given in words; binding and its absence hold for the method and conditions named.

Molecular target: rabbit CD40 (rabbit)
Assay: Alexa 647 labeled Ab102 on the surface of B cells

B1: Ab102 (antibody, human IgG1, kappa, L234A L235A, V domains shown)
VH: EVQLVESGGGLVKPGGSLRLSCAASGFTFSDYGMNWVRQAPGKGLEWIAYISSGRGNIYYADTVKGRFTISRDNAKNSLYLQMNSLRAEDTAVYYCARSWGYFDVWGQGTTVTVSS
VL: DIVMTQSPDSLAVSLGERATINCKSSQSLLNRGNQKNYLTWFQQKPGQPPKLLIYWASTRESGVPDRFSGSGSGTDFTLTISSLQAEDVAVYYCQNDYTYPLTFGQGTKLEIKR
notes: Humanized IgG1/kappa with L234A, L235A, T250Q, M428L (LALA-QL); also called VL huAbv1/VH huAb1v1CDR2v7/hCg1/k-LALA-QL; mAb CD40 Ab102 [hu IgG1/k]; LALA QL
Question: How did the binding turn out when B1 was run?
Answer: no binding (tested: 30 µg/mL (200 nM))
